Laboratory results published in EP0592600B1, “PROTEINS S POLYPEPTIDES AND USES THEREOF” (THE SCRIPPS RESEARCH INSTITUTE, priority 1991, dated 1993).
At least one peptide structure holds a part that was inferred or is arguable (an end, a ring closure or a residue). Peptide text beside a SMILES is read from it.

Target: T1, PS:C4BP complex (Homo sapiens, UniProt P04003+P20851)
T1 construct: Purified human C4BP was obtained from 5 liters (1) of human citrated plasma; from tissue; host or cells: human citrated plasma (C4BP); protein S per Schwarz et al
T1 sequence (P04003 49-597): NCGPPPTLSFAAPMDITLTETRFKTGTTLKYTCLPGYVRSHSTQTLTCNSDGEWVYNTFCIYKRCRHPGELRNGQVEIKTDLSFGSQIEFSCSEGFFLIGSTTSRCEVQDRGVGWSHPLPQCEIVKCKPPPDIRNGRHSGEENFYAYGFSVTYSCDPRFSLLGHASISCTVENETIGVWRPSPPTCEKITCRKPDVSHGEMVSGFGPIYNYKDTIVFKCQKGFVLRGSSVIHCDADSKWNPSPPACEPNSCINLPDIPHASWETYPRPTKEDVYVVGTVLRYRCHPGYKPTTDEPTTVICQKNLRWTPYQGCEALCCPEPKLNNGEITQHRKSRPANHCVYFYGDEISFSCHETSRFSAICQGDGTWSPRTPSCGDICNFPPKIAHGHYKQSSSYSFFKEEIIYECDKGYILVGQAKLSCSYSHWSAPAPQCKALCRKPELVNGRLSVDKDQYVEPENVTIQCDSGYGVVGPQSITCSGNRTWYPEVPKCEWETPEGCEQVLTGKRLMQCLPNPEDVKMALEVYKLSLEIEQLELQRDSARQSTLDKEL
T1 sequence (P20851 18-252): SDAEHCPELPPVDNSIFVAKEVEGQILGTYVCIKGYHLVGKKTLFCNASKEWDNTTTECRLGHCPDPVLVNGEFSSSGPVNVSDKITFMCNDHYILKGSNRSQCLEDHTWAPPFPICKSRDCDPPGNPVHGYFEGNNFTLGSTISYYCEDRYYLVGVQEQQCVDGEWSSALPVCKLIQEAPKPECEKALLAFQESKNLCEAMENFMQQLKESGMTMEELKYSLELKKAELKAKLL
Experiment: Peptide Inhibition Assay: binding of b-PS to C4BP in solid phase
Experimental: Each of the peptides produced as described in Example 1 and listed in Table 1 was analyzed for its ability to inhibit the binding of native protein S in liquid-phase to C4BP in solid-phase.
Microtiter wells of a 96 well plate were coated with 50 µl of 10 µg/ml purified C4BP in carbonate buffer (0.02 M Na2CO3, pH 9.0, 0.02% Na-Azide). After blocking with 10% BSA in TBS, 50 µl of different concentrations of peptides diluted in washing buffer (TBS, 0.2% BSA, 5mM CaCl, 0.02% Tween 20) were separately admixed to C4BP-coated wells. After 2 hours at room temperature, 50 µl of a solution of biotinylated protein S, were admixed to each well to form a second binding admixture having a final concentration of 2 µg/ml. The plate was agitated and the samples were incubated 1 hour at room temperature. The samples were discarded and the wells were washed 3 times with washing buffer. To each well, 50 µl of strepavidin-alkaline-phosphatase (1 µg/ml washing buffer) were admixed and allowed to incubate for 30 minutes at room temperature. The strepavidin-alkaline-phosphatase was then discarded and the wells were washed 6 times with washing buffer. The resulting optical densities of the reaction solutions were read as described before in Example 2C.
Results of the assay are reported as percent inhibition of C4BP binding. […]

Compound: CC[C@H](C)[C@H](NC(=O)CNC(=O)[C@H](CO)NC(=O)[C@H](C)NC(=O)CNC(=O)[C@@H](N)CCC(N)=O)C(=O)N[C@@H](CCCCN)C(=O)N[C@@H](CCC(=O)O)C(N)=O [PSP-417A] (H-QGASGIKE-NH2)
- inhibition of PS:C4BP complex formation relative to PS-peptides from other regions of protein S: strong inhibition
